This passage reports binding results from patent US20090312249A1.

By UniProt entry, the sequences of proteins in these tests, tags left out. Residues count along the entry.
UniProt O00206, residues 24-631: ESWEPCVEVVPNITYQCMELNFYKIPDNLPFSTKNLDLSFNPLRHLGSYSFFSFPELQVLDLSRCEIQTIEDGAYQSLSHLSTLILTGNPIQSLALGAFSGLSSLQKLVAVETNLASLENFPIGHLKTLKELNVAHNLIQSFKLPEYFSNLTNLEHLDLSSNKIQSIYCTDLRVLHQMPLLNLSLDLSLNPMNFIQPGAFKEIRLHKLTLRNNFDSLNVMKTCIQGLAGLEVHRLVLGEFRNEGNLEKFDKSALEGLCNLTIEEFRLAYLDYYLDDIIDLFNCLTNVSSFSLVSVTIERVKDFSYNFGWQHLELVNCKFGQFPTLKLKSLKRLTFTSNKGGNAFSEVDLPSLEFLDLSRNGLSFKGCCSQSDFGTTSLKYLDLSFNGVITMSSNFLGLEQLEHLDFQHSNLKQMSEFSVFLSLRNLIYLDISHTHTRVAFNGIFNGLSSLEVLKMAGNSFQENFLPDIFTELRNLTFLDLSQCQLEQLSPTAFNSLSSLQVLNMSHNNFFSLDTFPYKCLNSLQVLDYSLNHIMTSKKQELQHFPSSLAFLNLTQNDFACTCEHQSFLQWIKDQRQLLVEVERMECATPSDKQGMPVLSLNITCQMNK

In assay [1] the target is T1, Protein A-tagged MD-2 (UniProt Q9Y6Y9).
T1 sequence (looked up): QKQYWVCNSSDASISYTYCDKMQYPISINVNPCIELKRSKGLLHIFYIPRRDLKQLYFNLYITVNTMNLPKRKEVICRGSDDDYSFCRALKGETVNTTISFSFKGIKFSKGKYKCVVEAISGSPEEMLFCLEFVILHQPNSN
The assay is described as follows: co-expression in insect cells, IgG Sepharose affinity co-purification, SDS-PAGE.

In assay [2] the target is T1, Protein A-tagged MD-2. The experiment in a line: co-expression in insect cells, IgG Sepharose affinity co-purification, SDS-PAGE (legend of FIG. 4A).

No constants are given. Whether binding was seen depends on the method and setting. In cells and extracts the contact can be indirect. Some entries that bind do so weakly or less than the wild type. Tags and fused reporters may be left off the sequences shown.

For the substance “hTLR4 ectodomain (from UniProt O00206 24-631) (receptor)”, the binding result with Protein A-tagged MD-2 [1] and in the assay with Protein A-tagged MD-2 [2] was “binds” throughout.
